# The other results are listed elsewhere or left out.
# System: T1, CTL2-GFP (C. trachomatis L2/434/Bu, GFP-expressing)
# T1 construct: L2/434/Bu, GFP-expressing
# Design: species or system HeLa; Intracellular C. trachomatis growth in HeLa cells, bulk GFP fluorescence relative to DMSO
# Details: bulk GFP, single well; 28.5 h, 10 µM; inhibitor
row,Structure (SMILES),% of control remaining [%]
1,O=C(NC1CCc2ccccc21)N1CCN(CCc2ccccc2)CC1 (centres unmarked) [CBK158936],149.809
2,CC(CN(C)C)C(=O)c1ccsc1 (centres unmarked) [CBK025906],112.444
3,CC(C)(O)Cc1ccccc1C(=O)NC1CCCCCC1 [CBK010502],127.133
4,Cc1c(C(=O)N(C(C)C)C2CC2)nnn1-c1ccc2ncccc2c1 [CBK305518],97.834
5,CS(=O)(=O)N1CCC2(CC1)NC(=O)N(Cc1ccccc1)C2=O [CBK287656],90.0757
6,S=c1[nH]nc2ccc(N3CCOCC3)nn12 [CBK008327],94.1141
7,OC[C@H]1O[C@@H](n2cnc3cncnc32)C[C@H]1O [CBK201243],178.226
8,CC12CN3CC(C)(CN(C1)C3c1cccc([N+](=O)[O-])c1)C2=O (centres unmarked) [CBK009030],125.339
9,CN(C)S(=O)(=O)c1cccc(-c2cn3cccnc3n2)c1 [CBK267580],95.5759
10,CC(C)(C)C1CCC(OC(=O)CCC(=O)O)CC1 (centres unmarked) [CBK026882],103.403
11,Brc1nc2c3c(nc(N4CCOCC4)c2s1)CCCC3 [CBK019604],101.516
12,COc1ccc(C2CC(=O)C(=CNCCCN3CCOCC3)C(=O)C2)cc1 (centres unmarked) [CBK263647],100
13,O=C(C[n+]1cccc(C(=O)N/N=C/c2ccc(Br)cc2)c1)c1ccccc1 [CBK262063B],100
14,CC(=O)c1c(C)c2c(=O)n3c(nc2[nH]c1=O)CCC3 [CBK287872],121.907
15,COc1ccccc1N1CCN(CCC(=O)Nc2ccccc2F)CC1 [CBK264313],126.659
16,O=C1CC2(CCC3C(C(=O)N4CCCCC4)C32)Oc2ccccc21 (centres unmarked) [CBK284947],97.3679
17,CN1CCC(OCCCn2ccnc2-c2ccccc2C(=O)O)CC1 [CBK307188],149.818
18,CC(=O)Nc1cccc(/C(C)=N/NC(=O)c2ccc(CN3CCOCC3)cc2)c1 [CBK262746],113.383
19,COCC1(C(=O)N2CCN(c3ccccc3C#N)CC2)CCC1 [CBK304361],123.498
20,Nc1ncc(-c2cc(C(F)(F)F)cc(C(F)(F)F)c2)nc1Nc1ccc2[nH]ccc2c1 [CBK063651],165.856
21,O=[N+]([O-])c1ccc(Cl)cc1CN1CCN(C/C=C/c2ccccc2)CC1 [CBK261568],111.843

row,Structure (SMILES),% of control remaining [%]
1,CNCCc1n[nH]c(N)n1 [CBK020959],111.335
2,COc1ccc(Nc2nc(-c3cccc(-c4ccccc4)c3)cnc2N)cc1 [CBK063593],146.834
3,Cn1c(=O)[nH]c(=O)c2c1nc(N/N=C/c1cc(Br)ccc1O)n2CCO [CBK139415],106.094
4,COc1ccccc1NC(=O)c1ccc(OCC(=O)O)cc1 [CBK265849],123.715
5,CN(C)CCNc1cc(-c2ccncc2)nc2ccccc12 [CBK066898B],110.761
6,Cc1onc(-c2ccccc2)c1CNC(=O)CC1CC1 [CBK144072],110.391
7,c1ccc2c(OCc3nnn[nH]3)cccc2c1 [CBK269495],122.462
8,COc1ccccc1-c1ccccc1CC1(C(=O)NCc2ccc(F)cc2)CCOCC1 [CBK286425],96.1373
9,CC(NC(=O)N1CCCN(Cc2cccs2)CC1)c1nncn1C (centres unmarked) [CBK305322],110.709
10,O=C(O)CCC(=O)Nc1cccc(NC(=O)c2ccc(Br)cc2)c1 [CBK300180],155.582
11,O=C(CC(C(=O)O)P(=O)(c1ccccc1)c1ccccc1)c1ccccc1 (centres unmarked) [CBK264971],119.899
12,Cc1nc(CC(=O)NC(Cc2ccsc2)c2nccs2)cs1 (centres unmarked) [CBK282823],128.155
13,Cc1ccc(-c2noc(CN3CCN(Cc4ccccc4)CC3)n2)cc1 [CBK267288],148.864
14,COC(=O)Cn1nnc(-c2ccccc2)n1 [CBK069215],128.607
15,CC(=O)Nc1ccc(NC(=O)CCC(=O)O)cc1C [CBK265395],104.417
16,O=C(C1CC1)N1CCC(C(=O)N(Cc2ccco2)c2ccccc2)CC1 [CBK298269],146.904
17,CC12CN(S(=O)(=O)c3ccccc3)CC(c3ccccc3)(CN(S(=O)(=O)c3ccccc3)C1)C2=O [CBK268101],114.749
18,CC1CN(C)c2ccccc2CN1C(=O)Cc1cn2ccsc2n1 (centres unmarked) [CBK306355],153.402
19,CCOc1cccc(N2C(=O)CC(N3CCC(C(N)=O)(N4CCCCC4)CC3)C2=O)c1 (centres unmarked) [CBK263562],108.987
20,COc1cc(C(=O)N2CCC3(CC2)CC(=O)c2cc(NC(C)=O)ccc2O3)nc2c(OC)cccc12 [CBK170664],84.7397

# In the list so far, two contain two or more sulfur atoms:
row,Structure (SMILES),% of control remaining [%]
12,Cc1nc(CC(=O)NC(Cc2ccsc2)c2nccs2)cs1 (centres unmarked) [CBK282823],128.155
17,CC12CN(S(=O)(=O)c3ccccc3)CC(c3ccccc3)(CN(S(=O)(=O)c3ccccc3)C1)C2=O [CBK268101],114.749
